According to article PMC4624963, “Enzymatic Characterization of Recombinant Food Vacuole Plasmepsin 4 from the Rodent Malaria Parasite Plasmodium berghei” (PLoS ONE, 2015):
No constants are given. Whether binding was seen depends on the method and setting.

Protein sequences, listed by entry. Tags and fused reporters are not part of them. Residues count along the entry.
UniProt P39898, residues 124-452: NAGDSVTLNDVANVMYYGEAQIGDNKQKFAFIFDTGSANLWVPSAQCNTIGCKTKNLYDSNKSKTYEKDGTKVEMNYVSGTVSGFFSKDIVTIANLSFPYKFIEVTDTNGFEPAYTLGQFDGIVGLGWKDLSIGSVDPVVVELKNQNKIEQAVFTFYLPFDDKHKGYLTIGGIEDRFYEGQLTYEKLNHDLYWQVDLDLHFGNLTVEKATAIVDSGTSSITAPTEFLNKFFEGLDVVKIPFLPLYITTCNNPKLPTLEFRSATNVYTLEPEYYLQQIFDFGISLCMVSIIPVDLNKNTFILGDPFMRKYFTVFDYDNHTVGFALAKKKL

Target: plasmepsin 1 from Plasmodium falciparum (Plasmodium falciparum) (UniProt P39898)
Experiment: enzyme inhibition kinetics (Ki of competitive inhibition); initial cleavage velocities of a chromogenic peptide substrate at varied inhibitor concentration; mature PfPM1 pre-incubated in 100 mM sodium citrate pH 5.5, 37°C, 3 min; both purified

With KPYEFRQF [compound 1 (KPYEFΨRQF), peptidomimetic inhibitor designed for PbPM4] the binding was “no binding (tested: > 100,000 nM)”.
